# Columns and labels:
# hearing capability [1] = details: mouse, in vivo, 57 mg/kg
# hearing capability [2] = assay: BAER hearing test after repetitive cis-platin with or without DPH, or DPH alone; details: DPH administered together with cis-platin, mice (description)
compound,measurement,setting,value
"CN(C)CCOC(c1ccccc1)c1ccccc1 [DPH, diphenhydramine]",hearing capability one hour after DPH,hearing capability [1],70%
same,hearing capacity maintained,hearing capability [2],more than 80%

# Reference: patent publication EP2601945A1 (Thomale, Jürgen, priority 2011, dated 2013)
